Measurements taken from the supplement of paper PMC10849652.
The other results are listed elsewhere or left out.

Chains of the proteins cited; added tags and fusions are not shown. Lines headed by an entry give the natural chain unless they say otherwise; changes in a name come on top.
UniProt Q9NWB6: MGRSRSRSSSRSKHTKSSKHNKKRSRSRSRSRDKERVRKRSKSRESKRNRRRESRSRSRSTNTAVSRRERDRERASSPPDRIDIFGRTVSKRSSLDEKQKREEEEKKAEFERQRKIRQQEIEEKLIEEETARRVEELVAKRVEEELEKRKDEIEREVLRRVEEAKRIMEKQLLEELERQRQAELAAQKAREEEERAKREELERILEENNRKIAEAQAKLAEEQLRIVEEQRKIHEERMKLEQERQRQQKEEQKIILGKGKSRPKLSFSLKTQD
UniProt Q6NXT1: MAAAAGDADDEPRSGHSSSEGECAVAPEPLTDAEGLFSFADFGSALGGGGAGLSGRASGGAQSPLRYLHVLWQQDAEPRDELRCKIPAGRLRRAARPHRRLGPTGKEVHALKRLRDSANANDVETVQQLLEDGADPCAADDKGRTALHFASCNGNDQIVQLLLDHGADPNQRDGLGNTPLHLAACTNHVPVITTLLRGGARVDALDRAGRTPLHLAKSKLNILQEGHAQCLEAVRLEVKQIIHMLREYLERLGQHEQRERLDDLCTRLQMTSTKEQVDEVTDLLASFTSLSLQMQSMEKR
UniProt P20073: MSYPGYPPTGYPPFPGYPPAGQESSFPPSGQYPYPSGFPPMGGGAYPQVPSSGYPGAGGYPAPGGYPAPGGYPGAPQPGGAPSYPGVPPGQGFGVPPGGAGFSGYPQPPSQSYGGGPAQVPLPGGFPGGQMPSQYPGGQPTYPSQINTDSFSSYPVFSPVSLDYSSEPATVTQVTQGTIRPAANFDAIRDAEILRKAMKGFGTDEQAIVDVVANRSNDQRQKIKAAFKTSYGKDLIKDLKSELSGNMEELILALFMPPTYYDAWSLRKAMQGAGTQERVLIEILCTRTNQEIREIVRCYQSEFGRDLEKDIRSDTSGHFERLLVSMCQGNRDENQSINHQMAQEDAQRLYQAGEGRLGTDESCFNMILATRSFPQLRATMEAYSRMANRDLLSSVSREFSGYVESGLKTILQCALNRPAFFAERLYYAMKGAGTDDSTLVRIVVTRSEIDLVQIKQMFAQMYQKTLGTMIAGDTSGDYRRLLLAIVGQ
UniProt P09525: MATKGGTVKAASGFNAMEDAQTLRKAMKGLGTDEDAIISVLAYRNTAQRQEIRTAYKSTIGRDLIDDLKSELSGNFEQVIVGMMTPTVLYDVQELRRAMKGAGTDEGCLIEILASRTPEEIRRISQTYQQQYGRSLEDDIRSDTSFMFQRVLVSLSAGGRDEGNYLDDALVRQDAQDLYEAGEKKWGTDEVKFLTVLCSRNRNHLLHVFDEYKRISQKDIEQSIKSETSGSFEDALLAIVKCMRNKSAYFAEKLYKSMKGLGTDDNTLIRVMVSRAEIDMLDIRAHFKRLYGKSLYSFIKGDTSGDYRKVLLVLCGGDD
UniProt P02654: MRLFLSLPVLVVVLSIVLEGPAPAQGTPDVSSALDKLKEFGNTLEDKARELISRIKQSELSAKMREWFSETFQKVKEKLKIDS
UniProt Q9NRW3: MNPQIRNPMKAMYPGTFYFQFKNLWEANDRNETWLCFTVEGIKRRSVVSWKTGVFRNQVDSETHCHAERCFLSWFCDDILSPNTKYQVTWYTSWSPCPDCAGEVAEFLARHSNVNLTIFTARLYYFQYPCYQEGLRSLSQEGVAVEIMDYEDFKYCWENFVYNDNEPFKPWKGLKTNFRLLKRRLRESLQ
UniProt Q01484: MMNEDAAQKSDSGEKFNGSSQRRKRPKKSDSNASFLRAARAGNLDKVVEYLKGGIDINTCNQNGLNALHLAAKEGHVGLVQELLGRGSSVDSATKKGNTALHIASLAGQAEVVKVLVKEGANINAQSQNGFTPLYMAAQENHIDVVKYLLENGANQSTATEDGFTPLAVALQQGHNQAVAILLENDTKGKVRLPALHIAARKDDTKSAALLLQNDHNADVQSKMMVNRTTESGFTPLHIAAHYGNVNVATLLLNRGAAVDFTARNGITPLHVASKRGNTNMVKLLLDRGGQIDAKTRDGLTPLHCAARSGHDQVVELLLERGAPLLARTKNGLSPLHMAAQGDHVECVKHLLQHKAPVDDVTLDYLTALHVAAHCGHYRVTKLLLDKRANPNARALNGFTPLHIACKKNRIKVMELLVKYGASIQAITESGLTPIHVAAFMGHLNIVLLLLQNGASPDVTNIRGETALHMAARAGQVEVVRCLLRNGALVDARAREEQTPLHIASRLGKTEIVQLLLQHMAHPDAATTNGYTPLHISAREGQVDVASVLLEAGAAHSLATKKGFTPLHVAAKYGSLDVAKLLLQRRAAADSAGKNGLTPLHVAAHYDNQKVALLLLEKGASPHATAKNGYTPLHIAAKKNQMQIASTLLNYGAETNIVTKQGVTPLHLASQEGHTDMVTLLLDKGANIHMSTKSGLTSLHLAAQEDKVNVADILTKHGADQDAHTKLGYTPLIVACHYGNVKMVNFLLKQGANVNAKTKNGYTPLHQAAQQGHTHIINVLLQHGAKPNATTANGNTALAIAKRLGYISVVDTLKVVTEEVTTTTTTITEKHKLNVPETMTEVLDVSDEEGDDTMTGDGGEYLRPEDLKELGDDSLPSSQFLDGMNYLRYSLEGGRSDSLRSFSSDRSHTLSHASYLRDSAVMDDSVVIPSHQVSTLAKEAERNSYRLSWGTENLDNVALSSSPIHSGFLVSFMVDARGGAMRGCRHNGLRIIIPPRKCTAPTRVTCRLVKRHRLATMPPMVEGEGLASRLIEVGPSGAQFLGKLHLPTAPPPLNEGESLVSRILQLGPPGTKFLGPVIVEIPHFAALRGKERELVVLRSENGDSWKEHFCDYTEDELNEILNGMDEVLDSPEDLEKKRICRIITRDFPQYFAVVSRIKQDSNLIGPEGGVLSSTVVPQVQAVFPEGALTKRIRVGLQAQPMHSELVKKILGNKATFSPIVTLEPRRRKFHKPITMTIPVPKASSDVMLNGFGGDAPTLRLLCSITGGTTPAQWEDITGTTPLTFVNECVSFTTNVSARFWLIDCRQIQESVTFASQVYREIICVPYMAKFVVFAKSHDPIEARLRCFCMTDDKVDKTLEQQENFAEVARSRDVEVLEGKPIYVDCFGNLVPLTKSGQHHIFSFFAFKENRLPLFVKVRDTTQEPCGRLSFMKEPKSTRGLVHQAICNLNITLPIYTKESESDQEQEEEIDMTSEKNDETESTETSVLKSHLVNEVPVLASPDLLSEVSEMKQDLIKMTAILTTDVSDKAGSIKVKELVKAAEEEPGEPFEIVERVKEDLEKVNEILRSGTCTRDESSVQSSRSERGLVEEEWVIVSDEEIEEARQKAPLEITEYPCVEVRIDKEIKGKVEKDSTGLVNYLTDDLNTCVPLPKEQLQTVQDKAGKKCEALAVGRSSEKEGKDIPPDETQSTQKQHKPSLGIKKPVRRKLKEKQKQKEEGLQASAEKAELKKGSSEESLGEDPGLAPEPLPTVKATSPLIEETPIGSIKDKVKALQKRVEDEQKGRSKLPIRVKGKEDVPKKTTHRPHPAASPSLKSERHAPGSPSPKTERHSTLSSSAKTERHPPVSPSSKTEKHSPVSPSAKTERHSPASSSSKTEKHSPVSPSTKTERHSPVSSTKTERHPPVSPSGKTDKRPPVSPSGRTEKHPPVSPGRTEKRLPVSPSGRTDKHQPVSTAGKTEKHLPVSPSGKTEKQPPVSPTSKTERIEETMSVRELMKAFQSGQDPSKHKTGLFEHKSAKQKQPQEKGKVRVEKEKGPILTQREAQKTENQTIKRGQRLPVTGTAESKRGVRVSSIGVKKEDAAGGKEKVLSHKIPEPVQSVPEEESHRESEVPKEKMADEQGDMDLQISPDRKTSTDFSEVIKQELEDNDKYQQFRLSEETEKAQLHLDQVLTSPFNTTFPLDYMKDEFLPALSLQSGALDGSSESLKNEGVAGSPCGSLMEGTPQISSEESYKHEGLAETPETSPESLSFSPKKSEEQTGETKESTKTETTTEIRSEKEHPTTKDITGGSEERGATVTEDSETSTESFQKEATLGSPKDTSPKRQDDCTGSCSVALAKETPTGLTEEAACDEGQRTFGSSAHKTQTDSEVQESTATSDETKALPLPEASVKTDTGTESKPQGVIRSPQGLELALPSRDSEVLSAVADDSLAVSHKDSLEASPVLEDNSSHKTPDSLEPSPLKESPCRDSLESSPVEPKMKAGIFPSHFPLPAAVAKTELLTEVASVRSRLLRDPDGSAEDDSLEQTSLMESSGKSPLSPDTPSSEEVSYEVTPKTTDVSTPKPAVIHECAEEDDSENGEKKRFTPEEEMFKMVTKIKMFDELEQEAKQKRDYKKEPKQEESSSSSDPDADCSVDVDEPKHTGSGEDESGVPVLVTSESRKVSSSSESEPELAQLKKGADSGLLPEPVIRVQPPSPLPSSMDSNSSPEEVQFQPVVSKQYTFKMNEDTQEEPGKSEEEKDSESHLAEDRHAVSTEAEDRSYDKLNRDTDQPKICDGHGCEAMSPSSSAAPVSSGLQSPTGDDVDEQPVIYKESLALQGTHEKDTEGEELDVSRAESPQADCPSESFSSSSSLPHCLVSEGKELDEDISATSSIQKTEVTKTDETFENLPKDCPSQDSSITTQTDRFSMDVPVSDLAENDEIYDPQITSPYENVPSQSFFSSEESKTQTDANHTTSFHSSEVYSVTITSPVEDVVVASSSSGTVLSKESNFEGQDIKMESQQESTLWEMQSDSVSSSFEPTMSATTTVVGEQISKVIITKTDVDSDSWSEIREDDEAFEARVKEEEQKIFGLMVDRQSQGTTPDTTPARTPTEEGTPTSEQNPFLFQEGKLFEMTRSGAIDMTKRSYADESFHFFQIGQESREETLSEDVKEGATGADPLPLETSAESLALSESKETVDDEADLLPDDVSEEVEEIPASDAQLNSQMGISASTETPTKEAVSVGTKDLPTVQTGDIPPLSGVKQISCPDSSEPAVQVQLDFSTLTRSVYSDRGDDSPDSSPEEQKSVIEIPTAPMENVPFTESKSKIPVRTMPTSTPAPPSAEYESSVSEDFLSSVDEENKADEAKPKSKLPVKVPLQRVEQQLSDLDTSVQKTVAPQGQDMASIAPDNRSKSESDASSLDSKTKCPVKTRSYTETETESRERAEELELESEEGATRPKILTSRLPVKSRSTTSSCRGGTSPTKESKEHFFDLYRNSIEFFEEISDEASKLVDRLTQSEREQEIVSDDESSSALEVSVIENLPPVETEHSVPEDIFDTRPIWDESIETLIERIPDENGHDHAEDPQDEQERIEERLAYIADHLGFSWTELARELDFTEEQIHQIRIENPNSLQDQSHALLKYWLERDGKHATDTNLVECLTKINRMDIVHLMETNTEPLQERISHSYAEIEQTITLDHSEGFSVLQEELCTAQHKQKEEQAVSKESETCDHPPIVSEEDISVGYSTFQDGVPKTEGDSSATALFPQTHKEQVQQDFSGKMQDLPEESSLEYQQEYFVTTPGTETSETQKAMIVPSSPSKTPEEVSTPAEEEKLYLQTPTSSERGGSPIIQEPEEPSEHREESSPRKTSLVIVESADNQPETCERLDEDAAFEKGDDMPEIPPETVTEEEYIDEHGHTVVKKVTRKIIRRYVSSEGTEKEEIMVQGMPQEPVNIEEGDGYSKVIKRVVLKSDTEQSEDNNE
UniProt P61204: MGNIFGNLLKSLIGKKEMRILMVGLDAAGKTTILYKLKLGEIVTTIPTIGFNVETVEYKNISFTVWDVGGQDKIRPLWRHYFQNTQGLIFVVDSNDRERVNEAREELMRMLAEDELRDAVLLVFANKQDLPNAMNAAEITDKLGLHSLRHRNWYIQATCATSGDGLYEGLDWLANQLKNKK
UniProt Q9UJX4, whole entry, looked up: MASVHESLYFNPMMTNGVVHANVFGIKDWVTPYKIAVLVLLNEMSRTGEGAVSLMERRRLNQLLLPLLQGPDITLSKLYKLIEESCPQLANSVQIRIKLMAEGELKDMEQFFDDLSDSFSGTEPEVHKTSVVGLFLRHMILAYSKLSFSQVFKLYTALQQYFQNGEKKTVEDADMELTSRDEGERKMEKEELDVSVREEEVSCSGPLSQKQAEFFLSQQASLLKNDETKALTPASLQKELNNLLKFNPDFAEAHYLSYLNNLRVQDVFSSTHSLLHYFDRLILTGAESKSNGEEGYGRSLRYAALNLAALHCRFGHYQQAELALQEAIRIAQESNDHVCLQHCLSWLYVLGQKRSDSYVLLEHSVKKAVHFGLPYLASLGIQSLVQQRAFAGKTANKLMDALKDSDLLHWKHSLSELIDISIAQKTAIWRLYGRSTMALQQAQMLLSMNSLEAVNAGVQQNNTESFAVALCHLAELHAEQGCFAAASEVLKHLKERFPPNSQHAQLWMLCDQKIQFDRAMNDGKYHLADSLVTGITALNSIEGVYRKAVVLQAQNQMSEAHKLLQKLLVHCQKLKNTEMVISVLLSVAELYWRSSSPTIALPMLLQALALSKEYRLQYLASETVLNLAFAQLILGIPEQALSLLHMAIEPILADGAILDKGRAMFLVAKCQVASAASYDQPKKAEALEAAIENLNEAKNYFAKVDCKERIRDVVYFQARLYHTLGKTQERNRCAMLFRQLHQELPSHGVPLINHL

Compound: CS(=O)(=O)N1CCN(Cc2cc3nc(-c4cccc5[nH]ncc45)nc(N4CCOCC4)c3s2)CC1 [pictilisib]
Assay: log2 fold change, soluble protein after heating vs DMSO (PISA); higher = thermal stabilisation; K562 cells, 10 uM, 30 min; active = over 0.2 and 3.5 SD of the protein, either way, in both replicates (recomputed)
Method in brief: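 For each measurement, 10 μM compound was applied for 30 min to K562 cells at 2×10^6 cells/mL. Aliquots were heated for 3 min across 48°C-58°C, pooled, and extracted in PBS with 0.5% NP-40 at 4°C; the supernatant after 21,000xg for 90 min was soluble protein. This was quantified by TMTpro 16plex LC-MS/MS with channel sums equalised, and thermal stability was reported relative to control samples from duplicates, on a log2 fold-change scale.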

Target | log2 fold change
ARAP1 (UniProt Q96P48) | inactive: 0
ARHGAP1 (UniProt Q07960) | inactive: 0.024
AP3D1 isoform 5 (UniProt O14617) | inactive: -0.028
ARGLU1 (UniProt Q9NWB6) | inactive: -0.027
ANK3 (UniProt Q12955) | inactive: 0.083
AP5M1 (UniProt Q9H0R1) | inactive: -0.022
AQR (UniProt O60306) | inactive: -0.116
ANKRD54 (UniProt Q6NXT1) | inactive: -0.003
AP1B1 (UniProt Q10567) | inactive: 0.043
ANXA7 (UniProt P20073) | inactive: 0.035
ANKRD17 (UniProt O75179) | inactive: 0.016
APTX (UniProt Q7Z2E3) | inactive: 0.056
ARHGAP12 (UniProt Q8IWW6) | inactive: 0.016
ANXA4 (UniProt P09525) | inactive: -0.023
ANXA11 (UniProt P50995) | inactive: 0.007
ANPEP (UniProt P15144) | inactive: 0.038
APOM (UniProt O95445) | inactive: 0.098

Looked up one by one from above, two records:
Target | log2 fold change
AP3D1 isoform 5 (UniProt O14617) | inactive: -0.028
ARHGAP12 (UniProt Q8IWW6) | inactive: 0.016

Additional entries

Target | log2 fold change
APOH (UniProt P02749) | inactive: -0.537
AP2S1 (UniProt P53680) | inactive: -0.023
APRT (UniProt P07741) | inactive: 0.061
APOC1 (UniProt P02654) | inactive: 0.024
ARFGAP1 (UniProt Q8N6T3) | inactive: -0.007
ARHGDIA (UniProt P52565) | inactive: 0.059
APOBEC3C (UniProt Q9NRW3) | inactive: 0.075
ANO10 (UniProt Q9NW15) | inactive: 0.049
ANK2 (UniProt Q01484) | active: 0.532
ARHGDIB (UniProt P52566) | inactive: 0.058
AP4B1 (UniProt Q9Y6B7) | inactive: -0.081
ARF3 (UniProt P61204) | inactive: 0.038
AP2A1 (UniProt O95782) | inactive: -0.042
AP2A2 isoform 2 (UniProt O94973) | inactive: -0.002
ANTKMT (UniProt Q9BQD7) | inactive: 0.246
ANAPC5 (UniProt Q9UJX4) | inactive: -0.064
